Reference: patent US8101550B2, “Anthranilic acid diamide derivative with hetero-aromatic and hetero-cyclic substituents” (Bayer Cropscience AG, priority 2006, dated 2012)
Some results were stated once for a whole list of compounds, not compound by compound. For at least one compound, name, drawing or mass did not settle the structure.

How the values were obtained:
[1] = test system: larvae of the mustard beetle (Phaedon cochleariae); assay: Phaedon test (spray treatment); format: in vivo; settings: application rate 100 g/ba; Chinese cabbage leaf discs sprayed
[2] = test system: larvae of the armyworm (Spodoptera frugiperda); assay: Spodoptera frugiperda test (spray treatment); format: in vivo; settings: 100 g/ha; maize leaf discs sprayed

Structure (SMILES) | effect in % (kill of beetle larvae) [1] [%] | effect in % (kill of caterpillars) [2] [%]
CNC(=O)c1cc(Cl)cc(Cl)c1NC(=O)c1cc(Cn2nc(C(F)(F)F)nc2C(F)(F)F)nn1-c1ncccc1Cl [I-1-290] | ≥ 80 | ≥ 80
Cc1cc(C#N)cc(C(=O)NC2CC2)c1NC(=O)c1cc(Cn2cnc(C(F)(F)C(F)(F)F)n2)nn1-c1ncccc1Cl [I-1-353] | ≥ 80 | ≥ 80
O=C(NC1CC1)c1cc(Cl)cc(Cl)c1NC(=O)c1cc(Cn2nc(C(F)(F)F)cc2C(F)(F)F)nn1-c1ncccc1Cl [I-1-300] | ≥ 80 | ≥ 80
CNC(=O)c1cc(C#N)cc(C)c1NC(=O)c1cc(Cn2ccc(C(F)(F)F)n2)nn1-c1ncccc1Cl [I-1-181] | ≥ 80 | ≥ 80
Cc1cc(Cl)cc(C(=O)NC(C)C)c1NC(=O)c1cc(Cn2nc(C(F)F)c([N+](=O)[O-])c2C(F)F)nn1-c1ncccc1Cl [I-1-258] | ≥ 80 | ≥ 80
Cc1cc(I)cc(C(N)=O)c1NC(=O)c1cc(Cn2nc(C(F)(F)F)cc2C(F)(F)F)nn1-c1ncccc1Cl [I-1-234] | ≥ 80 | ≥ 80
CC(C)NC(=O)c1cc(Cl)cc(Cl)c1NC(=O)c1cc(Cn2cc(Cl)c(C(F)(F)C(F)(F)F)n2)nn1-c1ncccc1Cl [I-1-309] | ≥ 80 | ≥ 80
CNC(=O)c1cc(F)cc(C)c1NC(=O)c1cc(Cn2ccc(C(F)(F)F)n2)nn1-c1ncccc1Cl [I-1-222] | ≥ 80 | ≥ 80
Cc1cc(Cl)cc(C(=O)NC2CC2)c1NC(=O)c1cc(Cn2nc(C(F)F)c([N+](=O)[O-])c2C(F)F)nn1-c1ncccc1Cl [I-1-260] | ≥ 80 | ≥ 80
Cc1cc(F)cc(C(=O)NC(C)C)c1NC(=O)c1cc(Cn2nc(C(F)(F)F)nc2C(F)(F)F)nn1-c1ncccc1Cl [I-1-218] | ≥ 80 | ≥ 80
Cc1cc(Cl)cc(C(=O)NCC#N)c1NC(=O)c1cc(Cn2nc(C(F)(F)F)nc2C(F)(F)F)nn1-c1ncccc1Cl [I-1-49] | ≥ 80 | ≥ 80
Cc1cc(Br)cc(C(=O)NC2CC2)c1NC(=O)c1cc(Cn2ccc(C(F)(F)F)n2)nn1-c1ncccc1Cl [I-1-82] | ≥ 80 | ≥ 80
CNC(=O)c1cc(Cl)cc(Cl)c1NC(=O)c1cc(Cn2ccc(C(F)(F)F)n2)nn1-c1ncccc1Cl [I-1-312] | ≥ 80 | ≥ 80
CSCC(C)NC(=O)c1cc(Cl)cc(C)c1NC(=O)c1cc(Cn2cc(Cl)c(C(F)(F)C(F)(F)F)n2)nn1-c1ncccc1Cl (stereo not drawn) [I-1-206] | ≥ 80 | ≥ 80
CCNC(=O)c1cc(I)cc(C)c1NC(=O)c1cc(Cn2nc(C(F)(F)F)nc2C(F)(F)F)nn1-c1ncccc1Cl [I-1-283] | ≥ 80 | ≥ 80
Cc1cc(Br)cc(C(=O)NC(C)C)c1NC(=O)c1cc(Cn2cc(Br)c(C(F)(F)F)n2)nn1-c1ncccc1Cl [I-1-69] | ≥ 80 | ≥ 80
Cc1cc(Cl)cc(C(=O)NC(C)C)c1NC(=O)c1cc(Cn2cc(I)c(C(F)(F)F)n2)nn1-c1ncccc1Cl [I-1-63] | ≥ 80 | ≥ 80
N#CCNC(=O)c1cc(Cl)cc(Cl)c1NC(=O)c1cc(Cn2nc(C(F)(F)F)nc2C(F)(F)F)nn1-c1ncccc1Cl [I-1-292] | ≥ 80 | ≥ 80
CNC(=O)c1cc(I)cc(C)c1NC(=O)c1cc(Cn2nc(C(F)(F)F)nc2C(F)(F)F)nn1-c1ncccc1Cl [I-1-237] | ≥ 80 | ≥ 80
Cc1cc(I)cc(C(=O)NC2CCCC2)c1NC(=O)c1cc(Cn2nc(C(F)(F)F)nc2C(F)(F)F)nn1-c1ncccc1Cl [I-1-279] | ≥ 80 | ≥ 80
CNC(=O)c1cc(Cl)cc(C)c1NC(=O)c1cc(Cn2nnc(-c3ccccc3)n2)nn1-c1ncccc1Cl [I-1-165] | ≥ 80 | ≥ 80
N#CCNC(=O)c1cc(Cl)cc(Cl)c1NC(=O)c1cc(Cn2cnc(C(F)(F)C(F)(F)F)n2)nn1-c1ncccc1Cl [I-1-349] | ≥ 80 | ≥ 80
Cc1cc(Cl)cc(C(=O)NC(C)C)c1NC(=O)c1cc(Cn2nnc(-c3ccc(Cl)nc3)n2)nn1-c1ncccc1Cl [I-1-149] | ≥ 80 | ≥ 80
N#CCNC(=O)c1cc(Cl)cc(Cl)c1NC(=O)c1cc(Cn2ccc(C(F)(F)F)n2)nn1-c1ncccc1Cl [I-1-313] | ≥ 80 | ≥ 80

Structure (SMILES) | effect in % (kill of beetle larvae) [1] [%] | effect in % (kill of caterpillars) [2] [%]
Cc1cc(Cl)cc(C(=O)N[C@@H](C)CS(C)(=O)=O)c1NC(=O)c1cc(Cn2cc(Br)c(C(F)(F)F)n2)nn1-c1ncccc1Cl [I-1-141] | ≥ 80 | ≥ 80
Cc1cc(I)cc(C(N)=O)c1NC(=O)c1cc(Cn2ccc(C(F)(F)F)n2)nn1-c1ncccc1Cl [I-1-273] | ≥ 80 | ≥ 80
Cc1cc(Br)cc(C(=O)NCC#N)c1NC(=O)c1cc(Cn2nc(C(F)(F)F)cc2C(F)(F)F)nn1-c1ncccc1Cl [I-1-59] | ≥ 80 | ≥ 80
Cc1cc(I)cc(C(=O)NC(C)C)c1NC(=O)c1cc(Cn2nc(C(F)(F)F)nc2C(F)(F)F)nn1-c1ncccc1Cl [I-1-238] | ≥ 80 | ≥ 80
CNC(=O)c1cc(C#N)cc(C)c1NC(=O)c1cc(Cn2cnc(C(F)(F)C(F)(F)F)n2)nn1-c1ncccc1Cl [I-1-352] | ≥ 80 | ≥ 80
CNC(=O)c1cc(Cl)cc(C)c1NC(=O)c1cc(Cn2cc(I)c(C(F)(F)F)n2)nn1-c1ncccc1Cl [I-1-62] | ≥ 80 | ≥ 80
Cc1cc(C#N)cc(C(=O)NC(C)C)c1NC(=O)c1cc(Cn2cc(Cl)c(C(F)(F)C(F)(F)F)n2)nn1-c1ncccc1Cl [I-1-172] | ≥ 80 | ≥ 80
Cc1cc(I)cc(C(=O)NC(C)C2CC2)c1NC(=O)c1cc(Cn2cc(Cl)c(C(F)(F)C(F)(F)F)n2)nn1-c1ncccc1Cl (stereo not drawn) [I-1-287] | ≥ 80 | ≥ 80
NC(=O)c1cc(Cl)cc(Cl)c1NC(=O)c1cc(Cn2cc(Cl)c(C(F)(F)C(F)(F)F)n2)nn1-c1ncccc1Cl [I-1-307] | ≥ 80 | ≥ 80
Cc1cc(Br)cc(C(=O)NC2CC2)c1NC(=O)c1cc(Cn2nc(C(F)(F)F)cc2C(F)(F)F)nn1-c1ncccc1Cl [I-1-60] | ≥ 80 | ≥ 80
CNC(=O)c1cc(Cl)cc(C)c1NC(=O)c1cc(Cn2nc(C(F)(F)C(F)(F)F)nc2C(F)(F)F)nn1-c1ncccc1Cl [I-1-86] | ≥ 80 | ≥ 80
Cc1cc(Br)cc(C(=O)NCC#N)c1NC(=O)c1cc(Cn2nc(C(F)(F)F)nc2C(F)(F)F)nn1-c1ncccc1Cl [I-1-56] | ≥ 80 | ≥ 80
O=C(NC1CC1)c1cc(Cl)cc(Cl)c1NC(=O)c1cc(Cn2cnc(C(F)(F)C(F)(F)F)n2)nn1-c1ncccc1Cl [I-1-335] | ≥ 80 | ≥ 80
CNC(=O)c1cc(Cl)cc(C)c1NC(=O)c1cc(Cn2cc(Br)c(C(F)(F)F)n2)nn1-c1ncccc1Cl [I-1-66] | ≥ 80 | ≥ 80
Cc1cc(I)cc(C(=O)NCC#N)c1NC(=O)c1cc(Cn2ccc(C(F)(F)F)n2)nn1-c1ncccc1Cl [I-1-251] | ≥ 80 | ≥ 80
Cc1cc(Cl)cc(C(=O)NC(C)C)c1NC(=O)c1cc(Cn2nnc(-c3cc(Cl)nc(Cl)c3)n2)nn1-c1ncccc1Cl [I-1-156] | ≥ 80 | ≥ 80
CNC(=O)c1cc(I)cc(C)c1NC(=O)c1cc(Cn2cc(Cl)c(C(F)(F)C(F)(F)F)n2)nn1-c1ncccc1Cl [I-1-243] | ≥ 80 | ≥ 80
CSC[C@H](C)NC(=O)c1cc(Cl)cc(C)c1NC(=O)c1cc(Cn2nnc(-c3cc(Cl)nc(Cl)c3)n2)nn1-c1ncccc1Cl [I-1-157] | ≥ 80 | ≥ 80
CCNC(=O)c1cc(I)cc(C)c1NC(=O)c1cc(Cn2nc(C(F)(F)F)nc2C(F)(F)F)nn1-c1ncccc1Cl [I-1-244] | ≥ 80 | ≥ 80
CNC(=O)c1cc(Cl)cc(C)c1NC(=O)c1cc(Cn2nnc(-c3cc(Cl)nc(Cl)c3)n2)nn1-c1ncccc1Cl [I-1-155] | ≥ 80 | ≥ 80
Cc1cc(I)cc(C(=O)NC(C)C2CC2)c1NC(=O)c1cc(Cn2nc(C(F)(F)F)cc2C(F)(F)F)nn1-c1ncccc1Cl (stereo not drawn) [I-1-233] | ≥ 80 | ≥ 80
Cc1cc(C#N)cc(C(=O)NCC#N)c1NC(=O)c1cc(Cn2cc(Cl)c(C(F)(F)C(F)(F)F)n2)nn1-c1ncccc1Cl [I-1-175] | ≥ 80 | ≥ 80
Cc1cc(Cl)cc(C(=O)NC2CC2)c1NC(=O)c1cc(Cn2nc(C(F)(F)F)nc2C(F)(F)F)nn1-c1ncccc1Cl [I-1-54] | ≥ 80 | ≥ 80
Cc1cc(Br)cc(C(=O)NC2CC2)c1NC(=O)c1cc(Cn2nc(C(F)(F)F)nc2C(F)(F)F)nn1-c1ncccc1Cl [I-1-57] | ≥ 80 | ≥ 80
